# Experimental data: US7770577B2, “Methods and devices for treating lung dysfunction” (priority 2001, dated 2010)
# Test system: non-CF airway epithelial cell cultures
# Assay: SCN− efflux / apical accumulation in non-CF airway epithelial air-liquid interface cultures
# Assay type: cell-based, human
# Protocol: J. Respir. […] Experiments comparing non-CF and CF cells were performed with cultures grown simultaneously and matched in passage number, the number of cells plated, and days in culture. […] To initiate experiments, apical surfaces of the cultures were rapidly washed three times with Dulbecco's PBS (50 μl for 6.5 mm filters or 500 μl for 24 mm filters) containing 100 μM amiloride. Following a third wash, additional aliquots were placed on the apical surface for sequential 2 min incubations at 37° C. in humidified 5% CO2.
# Bronchial epithelial cells were obtained from either CF or non-CF lungs at the time of transplant or organ donation. Cells were passaged twice (thereby de-differentiated) and then cultured at an air-liquid interface for re-differentiation. […] J. Respir. […] Following three rapid PBS washes of the apical surface, additional PBS aliquots were placed on the apical surface for sequential 2 min incubations. […] Airway epithelial cell cultures from three separate CF patients were compared to three non-CF control cultures.
# [1] = non-CF cultures, direct sampling 2-5 μl, 0.07 mM basolateral
smiles,measurement,setting,value
"N#CS [SCN^−, thiocyanate]",[SCN^−] in undiluted apical surface liquid,[1],0.4 mM
same,concentration of SCN^− in apical surface liquid over basolateral media,[1],~6 fold
same,"total SCN^− recovered in initial PBS wash of apical surface, non-CF compared to CF cultures",overnight incubation with 14C-SCN− in basolateral media,11 fold
